Test results reported in publication PMC8867147.

Tests used:
Experiment in all cases: two-hybrid; yeast strain AH109; AD-FIO1 (pGADT7) with MTA, MTB, HAKAI or FIP37 in pGBKT7
[1] = target: T1, FKBP12 … PROTEIN 37KD (FIP37) (Arabidopsis thaliana) (UniProt Q9ZSZ8)
T1 sequence: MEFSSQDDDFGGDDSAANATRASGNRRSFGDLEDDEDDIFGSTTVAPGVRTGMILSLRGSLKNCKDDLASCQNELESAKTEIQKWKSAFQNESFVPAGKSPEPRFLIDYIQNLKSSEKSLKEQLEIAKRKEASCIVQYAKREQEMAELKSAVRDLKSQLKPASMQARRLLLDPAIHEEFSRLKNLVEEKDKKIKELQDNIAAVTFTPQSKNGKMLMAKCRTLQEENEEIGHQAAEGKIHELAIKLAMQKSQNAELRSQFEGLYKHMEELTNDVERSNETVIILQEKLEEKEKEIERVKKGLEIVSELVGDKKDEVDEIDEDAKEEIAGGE

[2] = target: T2, HAKAI (Arabidopsis thaliana) (UniProt Q9LFC0)
T2 sequence: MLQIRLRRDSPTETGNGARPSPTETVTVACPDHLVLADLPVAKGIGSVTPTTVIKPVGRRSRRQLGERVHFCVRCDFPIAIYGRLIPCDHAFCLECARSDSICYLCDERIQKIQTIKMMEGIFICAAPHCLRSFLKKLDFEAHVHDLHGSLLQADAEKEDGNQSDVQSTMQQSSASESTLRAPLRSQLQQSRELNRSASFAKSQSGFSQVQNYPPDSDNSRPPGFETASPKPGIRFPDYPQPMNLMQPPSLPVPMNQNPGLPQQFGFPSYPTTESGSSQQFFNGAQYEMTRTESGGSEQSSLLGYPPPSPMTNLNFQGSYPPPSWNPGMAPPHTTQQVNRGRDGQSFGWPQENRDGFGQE

[3] = target: T3, MTB (Arabidopsis thaliana) (UniProt Q94AI4)
T3 sequence: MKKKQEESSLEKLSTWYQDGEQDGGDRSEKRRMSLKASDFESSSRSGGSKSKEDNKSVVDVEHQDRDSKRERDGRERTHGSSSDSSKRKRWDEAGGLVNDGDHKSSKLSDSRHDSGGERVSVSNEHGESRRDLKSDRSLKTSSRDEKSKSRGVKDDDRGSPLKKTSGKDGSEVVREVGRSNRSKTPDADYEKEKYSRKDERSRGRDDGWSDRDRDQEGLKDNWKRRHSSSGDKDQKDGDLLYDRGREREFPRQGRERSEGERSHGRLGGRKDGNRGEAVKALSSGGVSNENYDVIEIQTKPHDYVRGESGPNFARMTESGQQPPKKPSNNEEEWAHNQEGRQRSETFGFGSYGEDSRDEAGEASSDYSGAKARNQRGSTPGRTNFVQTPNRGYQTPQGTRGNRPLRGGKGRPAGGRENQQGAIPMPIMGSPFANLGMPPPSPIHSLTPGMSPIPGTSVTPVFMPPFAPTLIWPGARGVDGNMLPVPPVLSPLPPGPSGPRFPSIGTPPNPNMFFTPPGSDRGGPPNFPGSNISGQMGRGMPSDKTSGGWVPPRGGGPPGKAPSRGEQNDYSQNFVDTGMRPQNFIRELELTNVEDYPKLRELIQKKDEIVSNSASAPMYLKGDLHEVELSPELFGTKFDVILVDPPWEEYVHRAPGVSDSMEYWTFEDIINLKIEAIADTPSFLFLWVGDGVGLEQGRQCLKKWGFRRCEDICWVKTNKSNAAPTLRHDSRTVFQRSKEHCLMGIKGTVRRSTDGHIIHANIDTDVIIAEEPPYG

Measured: binding

FIONA1 (FIO1) (Arabidopsis thaliana)
no binding: all assays above

No constants are given. Whether binding was seen depends on the method and setting.
